This assay has as its system SK-OV-3. The assay is described as follows: NCI cytotoxicity screen. In kind it is cell-based. As to conditions: Homo sapiens.

`COc1cc2ncnc(Nc3ccc(F)c(Cl)c3)c2cc1OCCCN1CCOCC1` [Gefitinib, reference compound]: the GI50 was 630 nM.

(Values after PMC11702208 (RSC Advances, 2025).)
